In article PMC9830426:
These are yes or no findings as the source states them, for the method shown. In cells and extracts the contact can be indirect. Some entries that bind do so weakly or less than the wild type. For some of these results: Sequences can lack the tags named with a protein.

Key:
FLAG-tagged FAM3C = target: T1, FLAG-tagged FAM3C (UniProt Q92520); assay: co-IP; HEK293T cells co-transfected with FLAG-FAM3C and HA-RalA; immunoprecipitation with anti-FLAG M2 magnetic beads, immunoblot
T1 sequence: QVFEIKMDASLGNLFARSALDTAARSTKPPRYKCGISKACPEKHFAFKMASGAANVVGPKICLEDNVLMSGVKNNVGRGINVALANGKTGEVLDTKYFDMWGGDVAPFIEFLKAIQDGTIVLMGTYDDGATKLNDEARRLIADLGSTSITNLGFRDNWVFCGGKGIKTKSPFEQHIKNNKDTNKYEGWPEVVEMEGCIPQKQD

[1] = target: T2, FAM3C overexpressed in A549 cells (FAM3C_ox) (UniProt Q92520); assay: proximity ligation; Duolink in situ PLA on A549 cells fixed with 4% paraformaldehyde; incubations at 37 °C
T2 sequence: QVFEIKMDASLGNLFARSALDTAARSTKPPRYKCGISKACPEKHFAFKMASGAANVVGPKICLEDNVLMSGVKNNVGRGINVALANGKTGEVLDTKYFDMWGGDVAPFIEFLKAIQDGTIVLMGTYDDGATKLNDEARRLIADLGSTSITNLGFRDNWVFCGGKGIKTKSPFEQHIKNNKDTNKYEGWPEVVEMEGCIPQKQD

[2] = target: T3, endogenous FAM3C (human (endogenous in SKMES-1 and A549)) (UniProt Q92520); assay: as above
T3 sequence: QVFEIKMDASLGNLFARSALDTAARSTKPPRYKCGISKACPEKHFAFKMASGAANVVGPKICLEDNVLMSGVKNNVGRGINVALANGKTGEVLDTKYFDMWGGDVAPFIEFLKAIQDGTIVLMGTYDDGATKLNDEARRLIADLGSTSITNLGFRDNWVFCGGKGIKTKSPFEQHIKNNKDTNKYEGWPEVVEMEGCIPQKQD

[3] = target: T3, endogenous FAM3C (human (endogenous in SKMES-1 and A549)); assay: co-IP; endogenous proteins in SKMES-1 cells; immunoprecipitation with anti-FAM3C antibody, immunoblot with FAM3C and RalA antibodies

B1: HA-tagged RalA (protein, UniProt P11233 1-206)
chain: MAANKPKGQNSLALHKVIMVGSGGVGKSALTLQFMYDEFVEDYEPTKADSYRKKVVLDGEEVQIDILDTAGQEDYAAIRDNYFRSGEGFLCVFSITEMESFAATADFREQILRVKEDENVPFLLVGNKSDLEDKRQVSVEEAKNRAEQWNVNYVETSAKTRANVDKVFFDLMREIRARKMEDSKEKNGKKKRKSLAKRIRERCCIL
- binding (FLAG-tagged FAM3C): binds

B2: endogenous RalA (protein, UniProt P11233 1-206)
chain: MAANKPKGQNSLALHKVIMVGSGGVGKSALTLQFMYDEFVEDYEPTKADSYRKKVVLDGEEVQIDILDTAGQEDYAAIRDNYFRSGEGFLCVFSITEMESFAATADFREQILRVKEDENVPFLLVGNKSDLEDKRQVSVEEAKNRAEQWNVNYVETSAKTRANVDKVFFDLMREIRARKMEDSKEKNGKKKRKSLAKRIRERCCIL
- binding [1]: binds
- binding [2]: binds
- binding [3]: binds
